# Results deposited as PubChem BioAssay AID1159579 (Peter MacCallum Cancer Centre, 2015).
# Screen: 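Find genes whose silencing alters migration of lymphatic endothelial cells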 (follow-up of hits)
# System: human dermal lymphatic endothelial cells
# Reagent: single siRNA against human genes, 25 nM
# Measurement: 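High content images of wound closure area and cell nuclei counts, each the average of two wells, expressed against mock transfection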
# Reading the numbers: migration relative to mock: higher = more migration into the scratch; mean nuclei count: higher = more cells remaining
# Rule for the call: 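Called active when the migration ratio is 0.6 or lower (impaired) or 1.3 or higher (accelerated), but inactive whenever the mean nuclei count falls under 3300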
# Calls: active = migration changed (impaired or accelerated); inactive = no migration change, or too few cells
# In all, the deposit lists about 2,000 reagents; this is a random part of them. 549 of all reagents (27%) were called active. 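Some migration ratios are negative; siRNAs with too few cells are inactive whatever their migration ratio.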 Reagents against one gene are numbered here. No sequences are given here. The record does not give: the time to read-out.
gene symbol,reagent no.,migration relative to mock,migration and cell number class,mean nuclei count,outcome
HIC1 (HIC ZBTB transcriptional repressor 1),1,0.69,no change in migration or cell number,7177,inactive
HIC1 (HIC ZBTB transcriptional repressor 1),2,0.62,no change in migration or cell number,5851,inactive
HIC1 (HIC ZBTB transcriptional repressor 1),3,0.3,migration reduced,5142,active
HIC1 (HIC ZBTB transcriptional repressor 1),4,1.04,no change in migration or cell number,6121,inactive
FAM9C (family with sequence similarity 9 member C),1,0.72,no change in migration or cell number,4776,inactive
FAM9C (family with sequence similarity 9 member C),2,0.73,no change in migration or cell number,5680,inactive
FAM9C (family with sequence similarity 9 member C),3,0.99,no change in migration or cell number,5554,inactive
FAM9C (family with sequence similarity 9 member C),4,0.72,no change in migration or cell number,5438,inactive
RNASEH2C (ribonuclease H2 subunit C),1,1.06,no change in migration or cell number,5782,inactive
RNASEH2C (ribonuclease H2 subunit C),2,0.88,no change in migration or cell number,5174,inactive
RNASEH2C (ribonuclease H2 subunit C),3,0.55,migration reduced,4168,active
RNASEH2C (ribonuclease H2 subunit C),4,0.92,no change in migration or cell number,5910,inactive
TLNRD1 (talin rod domain containing 1),1,0.85,no change in migration or cell number,5742,inactive
TLNRD1 (talin rod domain containing 1),2,0.93,no change in migration or cell number,4724,inactive
TLNRD1 (talin rod domain containing 1),3,0.76,no change in migration or cell number,5182,inactive
TLNRD1 (talin rod domain containing 1),4,0.7,no change in migration or cell number,4950,inactive
SRMS,1,0.44,migration reduced,4674,active
SRMS,2,0.57,migration reduced,4614,active
SRMS,3,0.8,no change in migration or cell number,5941,inactive
SRMS,4,0.52,migration reduced,5412,active
ABR (ABR activator of RhoGEF and GTPase),1,0.7,no change in migration or cell number,5907,inactive
ABR (ABR activator of RhoGEF and GTPase),2,0.9,no change in migration or cell number,5062,inactive
ABR (ABR activator of RhoGEF and GTPase),3,1.13,no change in migration or cell number,5614,inactive
ABR (ABR activator of RhoGEF and GTPase),4,0.7,no change in migration or cell number,5434,inactive
ALS2 (alsin Rho guanine nucleotide exchange factor ALS2),1,0.71,no change in migration or cell number,5028,inactive
ALS2 (alsin Rho guanine nucleotide exchange factor ALS2),2,0.94,no change in migration or cell number,5357,inactive
ALS2 (alsin Rho guanine nucleotide exchange factor ALS2),3,0.65,no change in migration or cell number,5814,inactive
ALS2 (alsin Rho guanine nucleotide exchange factor ALS2),4,0.72,no change in migration or cell number,4740,inactive
SPATS2L (spermatogenesis associated serine rich 2 like),1,0.78,no change in migration or cell number,6021,inactive
SPATS2L (spermatogenesis associated serine rich 2 like),2,0.9,no change in migration or cell number,6256,inactive
SPATS2L (spermatogenesis associated serine rich 2 like),3,0.5,migration reduced,5406,active
SPATS2L (spermatogenesis associated serine rich 2 like),4,1.16,no change in migration or cell number,6202,inactive
P2RX2 (purinergic receptor P2X 2),1,0.33,migration reduced,5384,active
P2RX2 (purinergic receptor P2X 2),2,0.48,migration reduced,5014,active
P2RX2 (purinergic receptor P2X 2),3,0.68,no change in migration or cell number,6308,inactive
P2RX2 (purinergic receptor P2X 2),4,0.18,migration reduced,3847,active
CIB1 (calcium and integrin binding 1),1,0.18,migration reduced,5544,active
CIB1 (calcium and integrin binding 1),2,0.63,no change in migration or cell number,5892,inactive
CIB1 (calcium and integrin binding 1),3,0.92,no change in migration or cell number,4697,inactive
CIB1 (calcium and integrin binding 1),4,0.61,no change in migration or cell number,4666,inactive
SETD9 (SET domain containing 9),1,0.91,no change in migration or cell number,4800,inactive
SETD9 (SET domain containing 9),2,1.02,no change in migration or cell number,5984,inactive
SETD9 (SET domain containing 9),3,0.98,no change in migration or cell number,5256,inactive
SETD9 (SET domain containing 9),4,0.64,no change in migration or cell number,4838,inactive
SYNGAP1 (synaptic Ras GTPase activating protein 1),1,0.53,migration reduced,5380,active
SYNGAP1 (synaptic Ras GTPase activating protein 1),2,0.89,no change in migration or cell number,7894,inactive
SYNGAP1 (synaptic Ras GTPase activating protein 1),3,-0.18,migration reduced,3888,active
SYNGAP1 (synaptic Ras GTPase activating protein 1),4,0.97,no change in migration or cell number,6522,inactive
MYL11 (myosin light chain 11),1,0.64,no change in migration or cell number,5846,inactive
MYL11 (myosin light chain 11),2,1.12,no change in migration or cell number,7037,inactive
MYL11 (myosin light chain 11),3,-0.25,migration reduced,4524,active
MYL11 (myosin light chain 11),4,0.79,no change in migration or cell number,6305,inactive
PRKD3 (protein kinase D3),1,0.49,migration reduced,6088,active
PRKD3 (protein kinase D3),2,0.69,no change in migration or cell number,6365,inactive
PRKD3 (protein kinase D3),3,0.68,no change in migration or cell number,5294,inactive
PRKD3 (protein kinase D3),4,0.49,migration reduced,4652,active
FBXO7 (F-box protein 7),1,-0.16,migration reduced,3735,active
FBXO7 (F-box protein 7),2,0.33,migration reduced,4210,active
FBXO7 (F-box protein 7),3,0.9,no change in migration or cell number,6130,inactive
FBXO7 (F-box protein 7),4,0.88,no change in migration or cell number,5334,inactive
NFATC4 (nuclear factor of activated T cells 4),1,0.6,migration reduced,5845,active
NFATC4 (nuclear factor of activated T cells 4),2,0.21,migration reduced,4950,active
NFATC4 (nuclear factor of activated T cells 4),3,0.49,migration reduced,5456,active
NFATC4 (nuclear factor of activated T cells 4),4,0.94,no change in migration or cell number,6246,inactive
ADCK1 (aarF domain containing kinase 1),1,0.08,migration reduced,4067,active
ADCK1 (aarF domain containing kinase 1),2,0.71,no change in migration or cell number,7375,inactive
ADCK1 (aarF domain containing kinase 1),3,0.94,no change in migration or cell number,4986,inactive
ADCK1 (aarF domain containing kinase 1),4,0.86,no change in migration or cell number,7139,inactive
SPATA46 (spermatogenesis associated 46),1,1.05,no change in migration or cell number,5069,inactive
SPATA46 (spermatogenesis associated 46),2,1.05,no change in migration or cell number,6209,inactive
SPATA46 (spermatogenesis associated 46),3,0.56,migration reduced,5648,active
SPATA46 (spermatogenesis associated 46),4,0.7,no change in migration or cell number,5412,inactive
"GIMAP8 (GTPase, IMAP family member 8)",1,0.99,no change in migration or cell number,6391,inactive
"GIMAP8 (GTPase, IMAP family member 8)",2,0.8,no change in migration or cell number,6034,inactive
"GIMAP8 (GTPase, IMAP family member 8)",3,0.83,no change in migration or cell number,5570,inactive
"GIMAP8 (GTPase, IMAP family member 8)",4,0.76,no change in migration or cell number,5678,inactive
ETNK2 (ethanolamine kinase 2),1,0.41,migration reduced,6680,active
ETNK2 (ethanolamine kinase 2),2,0.48,migration reduced,4099,active
ETNK2 (ethanolamine kinase 2),3,0.82,no change in migration or cell number,5941,inactive
ETNK2 (ethanolamine kinase 2),4,0.59,migration reduced,5778,active
TMEM125 (transmembrane protein 125),1,0.66,no change in migration or cell number,4824,inactive
TMEM125 (transmembrane protein 125),2,0.68,no change in migration or cell number,4656,inactive
TMEM125 (transmembrane protein 125),3,0.43,migration reduced,7010,active
TMEM125 (transmembrane protein 125),4,0.46,too few cells; migration not scored,3261,inactive
S1PR1 (sphingosine-1-phosphate receptor 1),1,0.47,migration reduced,3961,active
S1PR1 (sphingosine-1-phosphate receptor 1),2,0.75,no change in migration or cell number,6740,inactive
S1PR1 (sphingosine-1-phosphate receptor 1),3,0.43,migration reduced,6640,active
S1PR1 (sphingosine-1-phosphate receptor 1),4,-0.45,too few cells; migration not scored,3187,inactive

Entries above whose target name begins with G or g:
gene symbol,reagent no.,migration relative to mock,migration and cell number class,mean nuclei count,outcome
"GIMAP8 (GTPase, IMAP family member 8)",1,0.99,no change in migration or cell number,6391,inactive
"GIMAP8 (GTPase, IMAP family member 8)",2,0.8,no change in migration or cell number,6034,inactive
"GIMAP8 (GTPase, IMAP family member 8)",3,0.83,no change in migration or cell number,5570,inactive
"GIMAP8 (GTPase, IMAP family member 8)",4,0.76,no change in migration or cell number,5678,inactive
